Laboratory results reported in patent publication US20040208880A1.
Results are given in words; binding and its absence hold for the method and conditions named. For some assays here: Binding seen in cells or lysates may run through a third protein. Some entries that bind do so weakly or less than the wild type.

Chains of the proteins cited; added tags and fusions are not shown. Lines headed by an entry give the natural chain unless they say otherwise; changes in a name come on top.
UniProt P63167: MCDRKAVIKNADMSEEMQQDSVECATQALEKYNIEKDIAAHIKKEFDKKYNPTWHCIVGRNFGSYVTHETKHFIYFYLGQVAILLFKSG
UniProt Q13153: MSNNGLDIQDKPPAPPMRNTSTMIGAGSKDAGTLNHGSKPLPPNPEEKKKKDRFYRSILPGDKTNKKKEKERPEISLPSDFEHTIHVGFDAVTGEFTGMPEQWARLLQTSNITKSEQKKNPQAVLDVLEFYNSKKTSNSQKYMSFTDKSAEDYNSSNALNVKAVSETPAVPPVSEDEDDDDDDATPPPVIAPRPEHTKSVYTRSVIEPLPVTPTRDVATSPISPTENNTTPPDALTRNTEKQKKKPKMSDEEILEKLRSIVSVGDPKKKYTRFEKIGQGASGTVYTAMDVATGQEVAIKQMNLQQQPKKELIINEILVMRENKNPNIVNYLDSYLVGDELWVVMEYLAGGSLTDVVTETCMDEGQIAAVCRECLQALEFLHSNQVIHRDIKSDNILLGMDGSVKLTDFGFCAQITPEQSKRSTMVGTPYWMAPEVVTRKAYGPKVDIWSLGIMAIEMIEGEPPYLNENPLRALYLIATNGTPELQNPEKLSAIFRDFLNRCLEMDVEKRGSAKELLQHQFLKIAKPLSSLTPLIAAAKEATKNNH
UniProt P03372: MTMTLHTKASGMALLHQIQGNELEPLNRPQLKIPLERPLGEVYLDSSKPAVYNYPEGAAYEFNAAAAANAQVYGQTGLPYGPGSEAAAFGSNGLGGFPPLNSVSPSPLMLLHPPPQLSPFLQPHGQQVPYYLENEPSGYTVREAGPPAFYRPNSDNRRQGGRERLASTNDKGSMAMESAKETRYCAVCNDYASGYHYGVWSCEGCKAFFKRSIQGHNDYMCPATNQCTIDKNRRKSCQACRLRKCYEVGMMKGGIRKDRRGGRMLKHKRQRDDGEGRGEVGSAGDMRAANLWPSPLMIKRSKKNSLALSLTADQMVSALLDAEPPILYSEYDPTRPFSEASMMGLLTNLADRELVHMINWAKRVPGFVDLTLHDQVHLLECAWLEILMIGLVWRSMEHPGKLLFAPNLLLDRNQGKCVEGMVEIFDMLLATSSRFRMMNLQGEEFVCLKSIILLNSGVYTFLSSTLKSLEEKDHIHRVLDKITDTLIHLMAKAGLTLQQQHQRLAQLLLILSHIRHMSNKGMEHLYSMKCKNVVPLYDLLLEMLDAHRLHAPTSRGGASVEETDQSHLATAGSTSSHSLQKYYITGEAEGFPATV
UniProt P61273: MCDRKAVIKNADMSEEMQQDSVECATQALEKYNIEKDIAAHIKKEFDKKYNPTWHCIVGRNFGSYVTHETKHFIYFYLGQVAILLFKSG

Experiments:
[1] = biological target: dynein light chain-1/protein inhibitor of nitric oxide synthase (DLC1/PIN), amino acids 1-89 (human) (UniProt P63167); assay: GST-AB domain pull-down with in vitro translated 35S-labeled DLC1
[2] = biological target: p21-activated protein kinase 1 (Pak1), full-length, amino acids 1-545 (human) (UniProt Q13153); assay: GST-AB domain pull-down with in vitro translated 35S-labeled Pak1
[3] = biological target: dynein light chain-1/protein inhibitor of nitric oxide synthase (DLC1/PIN), amino acids 1-89 (human) (UniProt P63167); assay: GST pull-down, GST-ER deletion constructs with in vitro translated 35S-DLC1
[4] = biological target: dynein light chain-1/protein inhibitor of nitric oxide synthase (DLC1/PIN), amino acids 1-89 (human) (UniProt P63167); assay: GST pull-down with in vitro translated DLC1/PIN
[5] = biological target: estrogen receptor alpha (ER), full-length (UniProt P03372); assay: GST pull-down with in vitro translated 35S-ER
[6] = biological target: p21-activated protein kinase 1 (Pak1), full-length, amino acids 1-545 (human) (UniProt Q13153); assay: GST pull-down with in vitro translated 35S-Pak1
[7] = biological target: GBD-Pak1 (amino acids 1-270) (human); assay: yeast two-hybrid, library screen and one-on-one transformation

## GST-ER AB domain (amino acid 1-180 of ER) (from UniProt P03372 1-180)
[1]
  binding: binds
[2]
  binding: binds
[3]
  binding: binds

## GST-Pak1 PIX binding domain (amino acids 132-270) (from UniProt Q13153 132-270)
[4]
  binding: binds

## GST-Pak1 fusion protein, wild-type (amino acids 1-545) (from UniProt Q13153 1-545) (enzyme)
[4]
  binding: binds

## GST-DLC1/PIN fusion protein (wild type) (from UniProt P61273 1-89)
[5]
  binding: binds
[6]
  binding: binds

## GAD-DLC1/PIN (from UniProt P61273 1-89)
[7]
  binding: binds
